From PMC6748115
No constants are given. Whether binding was seen depends on the method and setting. Binding seen in cells or lysates may run through a third protein. Some results given as binding are weak or reduced against the parent protein; the word gives no strength.

Chains of the proteins cited; added tags and fusions are not shown.
UniProt P40336: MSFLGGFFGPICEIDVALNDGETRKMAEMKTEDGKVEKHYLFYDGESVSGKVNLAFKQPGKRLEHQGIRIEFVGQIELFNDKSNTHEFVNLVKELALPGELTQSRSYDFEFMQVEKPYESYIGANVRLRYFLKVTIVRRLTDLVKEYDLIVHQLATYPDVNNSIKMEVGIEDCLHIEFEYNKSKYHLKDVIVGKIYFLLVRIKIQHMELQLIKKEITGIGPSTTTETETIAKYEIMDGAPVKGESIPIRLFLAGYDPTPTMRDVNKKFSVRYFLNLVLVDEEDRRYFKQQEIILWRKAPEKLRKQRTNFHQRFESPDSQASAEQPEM

Molecular target: Vps26a (endogenous, mouse embryonic stem cells) (mouse (endogenous in mouse ESCs)) (UniProt P40336)
Test: co-IP; Vps26a immunoprecipitation (3 ug antibody overnight at 4 C, protein G magnetic beads) from lysates of WT mouse ESCs during neural differentiation for 0 or 6 days; anti-Nox4 immunoblot; IgG and Vps26a-/- ESCs as controls

- binding: binds
B1: Nox4 (endogenous, mouse embryonic stem cells) (enzyme, UniProt Q9JHI8 1-578)
chain: MAVSWRSWLANEGVKHLCLLIWLSLNVLLFWKTFLLYNQGPEYYYIHQMLGLGLCLSRASASVLNLNCSLILLPMCRTVLAYLRGSQKVPSRRTRRLLDKSKTLHITCGVTICIFSGVHVAAHLVNALNFSVNYSEDFLELNAARYQNEDPRKLLFTTIPGLTGVCMVVVLFLMVTASTYAIRVSNYDIFWYTHNLFFVFYMLLLLHVSGGLLKYQTNVDTHPPGCISLNQTSSQNMSIPDYVSEHFHGSLPRGFSKLEDRYQKTLVKICLEEPKFQAHFPQTWIWISGPLCLYCAERLYRCIRSNKPVTIISVINHPSDVMELRMIKENFKARPGQYIILHCPSVSALENHPFTLTMCPTETKATFGVHFKVVGDWTERFRDLLLPPSSQDSEILPFIHSRNYPKLYIDGPFGSPFEESLNYEVSLCVAGGIGVTPFASILNTLLDDWKPYKLRRLYFIWVCRDIQSFQWFADLLCVLHNKFWQENRPDFVNIQLYLSQTDGIQKIIGEKYHTLNSRLFIGRPRWKLLFDEIAKCNRGKTVGVFCCGPSSISKTLHSLSNRNNSYGTKFEYNKESFS
